Results are given in words; binding and its absence hold for the method and conditions named. In cells and extracts the contact can be indirect. Some results given as binding are weak or reduced against the parent protein; the word gives no strength.
Biological target: T1, β-catenin (human, UniProt P35222 2-781)
T1 construct: Endogenous protein in cell lysate; also called beta-catenin
T1 sequence (looked up): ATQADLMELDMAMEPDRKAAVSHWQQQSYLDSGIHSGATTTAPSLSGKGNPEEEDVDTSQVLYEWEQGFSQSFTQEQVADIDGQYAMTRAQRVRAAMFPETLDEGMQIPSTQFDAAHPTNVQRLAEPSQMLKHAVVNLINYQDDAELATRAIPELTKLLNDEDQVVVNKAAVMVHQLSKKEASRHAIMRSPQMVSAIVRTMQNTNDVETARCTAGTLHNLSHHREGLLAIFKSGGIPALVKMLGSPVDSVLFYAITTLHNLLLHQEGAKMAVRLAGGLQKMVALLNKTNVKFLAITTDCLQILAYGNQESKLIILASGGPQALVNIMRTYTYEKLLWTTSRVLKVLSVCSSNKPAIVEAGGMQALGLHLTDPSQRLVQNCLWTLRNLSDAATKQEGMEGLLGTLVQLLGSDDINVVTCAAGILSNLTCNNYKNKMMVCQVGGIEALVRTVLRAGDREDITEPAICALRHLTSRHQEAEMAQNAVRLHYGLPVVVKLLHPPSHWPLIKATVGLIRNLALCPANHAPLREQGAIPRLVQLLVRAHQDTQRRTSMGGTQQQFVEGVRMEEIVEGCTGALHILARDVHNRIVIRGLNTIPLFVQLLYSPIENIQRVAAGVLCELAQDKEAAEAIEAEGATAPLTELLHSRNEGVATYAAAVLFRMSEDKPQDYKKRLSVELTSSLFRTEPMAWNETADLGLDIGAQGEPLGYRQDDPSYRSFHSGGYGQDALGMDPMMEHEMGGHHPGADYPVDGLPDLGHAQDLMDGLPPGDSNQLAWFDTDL
Test: GST pull-down from HEK 293 lysate (500 ug), anti-β-catenin western blot

The chains behind the UniProt entries cited, without tags or fusion partners. Residues count along the entry.
UniProt P12830, residues 731-882: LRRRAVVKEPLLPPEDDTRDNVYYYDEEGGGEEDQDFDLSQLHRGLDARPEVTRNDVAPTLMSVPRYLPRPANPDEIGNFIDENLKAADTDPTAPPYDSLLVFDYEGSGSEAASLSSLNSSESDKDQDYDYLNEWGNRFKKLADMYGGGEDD

- binding: binds
Substance: recombinant GST fusion protein containing the cytoplasmic tail of E-cadherin (GST-Ecad) (from UniProt P12830 731-882)
